Assay results taken from US20080119400A1.
Results are given in words; binding and its absence hold for the method and conditions named. Some results given as binding are weak or reduced against the parent protein; the word gives no strength.

Amino acid sequences for entries named in this document (tags omitted). A change or cut given only in a name is not applied to a line headed by its entry. Residues count along the entry.
UniProt P01024, residues 23-1663: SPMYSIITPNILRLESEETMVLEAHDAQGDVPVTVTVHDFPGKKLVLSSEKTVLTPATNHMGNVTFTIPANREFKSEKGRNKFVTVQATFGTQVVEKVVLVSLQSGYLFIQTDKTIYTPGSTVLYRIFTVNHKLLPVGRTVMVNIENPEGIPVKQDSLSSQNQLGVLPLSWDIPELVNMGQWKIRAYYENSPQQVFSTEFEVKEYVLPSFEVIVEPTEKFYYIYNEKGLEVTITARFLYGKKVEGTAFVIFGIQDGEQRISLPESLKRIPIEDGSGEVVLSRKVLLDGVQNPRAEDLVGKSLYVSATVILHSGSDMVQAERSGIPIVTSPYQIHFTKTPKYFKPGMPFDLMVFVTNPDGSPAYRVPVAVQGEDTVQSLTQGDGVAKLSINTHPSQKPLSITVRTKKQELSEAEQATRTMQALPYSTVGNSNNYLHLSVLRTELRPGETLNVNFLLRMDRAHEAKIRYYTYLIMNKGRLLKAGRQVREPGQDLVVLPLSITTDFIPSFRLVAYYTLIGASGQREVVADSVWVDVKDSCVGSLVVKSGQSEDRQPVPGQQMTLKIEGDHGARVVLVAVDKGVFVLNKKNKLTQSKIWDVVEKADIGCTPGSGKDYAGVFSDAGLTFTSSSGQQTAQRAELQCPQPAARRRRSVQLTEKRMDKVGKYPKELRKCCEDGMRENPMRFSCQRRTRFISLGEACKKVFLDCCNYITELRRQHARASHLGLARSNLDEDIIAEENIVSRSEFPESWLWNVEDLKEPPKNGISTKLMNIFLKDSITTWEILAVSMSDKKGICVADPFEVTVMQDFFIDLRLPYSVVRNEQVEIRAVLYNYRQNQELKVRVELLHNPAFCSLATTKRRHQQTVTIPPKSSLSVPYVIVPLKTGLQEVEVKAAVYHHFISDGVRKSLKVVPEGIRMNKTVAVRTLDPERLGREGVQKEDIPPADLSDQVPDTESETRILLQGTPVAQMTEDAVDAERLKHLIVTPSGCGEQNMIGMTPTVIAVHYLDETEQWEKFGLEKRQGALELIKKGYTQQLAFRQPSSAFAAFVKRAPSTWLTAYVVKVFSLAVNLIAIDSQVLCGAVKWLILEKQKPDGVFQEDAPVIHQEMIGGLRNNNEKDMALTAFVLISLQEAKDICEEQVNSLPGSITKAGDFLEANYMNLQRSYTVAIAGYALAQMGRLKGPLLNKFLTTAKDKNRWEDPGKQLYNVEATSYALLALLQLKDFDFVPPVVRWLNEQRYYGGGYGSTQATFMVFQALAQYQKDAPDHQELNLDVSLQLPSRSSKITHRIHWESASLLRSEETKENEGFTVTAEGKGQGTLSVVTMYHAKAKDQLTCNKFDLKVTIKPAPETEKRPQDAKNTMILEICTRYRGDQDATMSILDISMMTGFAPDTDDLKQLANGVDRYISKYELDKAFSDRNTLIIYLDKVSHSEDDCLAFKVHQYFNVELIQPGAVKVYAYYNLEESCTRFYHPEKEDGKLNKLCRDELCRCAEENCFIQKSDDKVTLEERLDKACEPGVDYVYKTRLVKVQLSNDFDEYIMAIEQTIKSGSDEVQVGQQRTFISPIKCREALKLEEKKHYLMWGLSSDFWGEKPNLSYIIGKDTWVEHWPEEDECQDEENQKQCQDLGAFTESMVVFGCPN
UniProt P17927: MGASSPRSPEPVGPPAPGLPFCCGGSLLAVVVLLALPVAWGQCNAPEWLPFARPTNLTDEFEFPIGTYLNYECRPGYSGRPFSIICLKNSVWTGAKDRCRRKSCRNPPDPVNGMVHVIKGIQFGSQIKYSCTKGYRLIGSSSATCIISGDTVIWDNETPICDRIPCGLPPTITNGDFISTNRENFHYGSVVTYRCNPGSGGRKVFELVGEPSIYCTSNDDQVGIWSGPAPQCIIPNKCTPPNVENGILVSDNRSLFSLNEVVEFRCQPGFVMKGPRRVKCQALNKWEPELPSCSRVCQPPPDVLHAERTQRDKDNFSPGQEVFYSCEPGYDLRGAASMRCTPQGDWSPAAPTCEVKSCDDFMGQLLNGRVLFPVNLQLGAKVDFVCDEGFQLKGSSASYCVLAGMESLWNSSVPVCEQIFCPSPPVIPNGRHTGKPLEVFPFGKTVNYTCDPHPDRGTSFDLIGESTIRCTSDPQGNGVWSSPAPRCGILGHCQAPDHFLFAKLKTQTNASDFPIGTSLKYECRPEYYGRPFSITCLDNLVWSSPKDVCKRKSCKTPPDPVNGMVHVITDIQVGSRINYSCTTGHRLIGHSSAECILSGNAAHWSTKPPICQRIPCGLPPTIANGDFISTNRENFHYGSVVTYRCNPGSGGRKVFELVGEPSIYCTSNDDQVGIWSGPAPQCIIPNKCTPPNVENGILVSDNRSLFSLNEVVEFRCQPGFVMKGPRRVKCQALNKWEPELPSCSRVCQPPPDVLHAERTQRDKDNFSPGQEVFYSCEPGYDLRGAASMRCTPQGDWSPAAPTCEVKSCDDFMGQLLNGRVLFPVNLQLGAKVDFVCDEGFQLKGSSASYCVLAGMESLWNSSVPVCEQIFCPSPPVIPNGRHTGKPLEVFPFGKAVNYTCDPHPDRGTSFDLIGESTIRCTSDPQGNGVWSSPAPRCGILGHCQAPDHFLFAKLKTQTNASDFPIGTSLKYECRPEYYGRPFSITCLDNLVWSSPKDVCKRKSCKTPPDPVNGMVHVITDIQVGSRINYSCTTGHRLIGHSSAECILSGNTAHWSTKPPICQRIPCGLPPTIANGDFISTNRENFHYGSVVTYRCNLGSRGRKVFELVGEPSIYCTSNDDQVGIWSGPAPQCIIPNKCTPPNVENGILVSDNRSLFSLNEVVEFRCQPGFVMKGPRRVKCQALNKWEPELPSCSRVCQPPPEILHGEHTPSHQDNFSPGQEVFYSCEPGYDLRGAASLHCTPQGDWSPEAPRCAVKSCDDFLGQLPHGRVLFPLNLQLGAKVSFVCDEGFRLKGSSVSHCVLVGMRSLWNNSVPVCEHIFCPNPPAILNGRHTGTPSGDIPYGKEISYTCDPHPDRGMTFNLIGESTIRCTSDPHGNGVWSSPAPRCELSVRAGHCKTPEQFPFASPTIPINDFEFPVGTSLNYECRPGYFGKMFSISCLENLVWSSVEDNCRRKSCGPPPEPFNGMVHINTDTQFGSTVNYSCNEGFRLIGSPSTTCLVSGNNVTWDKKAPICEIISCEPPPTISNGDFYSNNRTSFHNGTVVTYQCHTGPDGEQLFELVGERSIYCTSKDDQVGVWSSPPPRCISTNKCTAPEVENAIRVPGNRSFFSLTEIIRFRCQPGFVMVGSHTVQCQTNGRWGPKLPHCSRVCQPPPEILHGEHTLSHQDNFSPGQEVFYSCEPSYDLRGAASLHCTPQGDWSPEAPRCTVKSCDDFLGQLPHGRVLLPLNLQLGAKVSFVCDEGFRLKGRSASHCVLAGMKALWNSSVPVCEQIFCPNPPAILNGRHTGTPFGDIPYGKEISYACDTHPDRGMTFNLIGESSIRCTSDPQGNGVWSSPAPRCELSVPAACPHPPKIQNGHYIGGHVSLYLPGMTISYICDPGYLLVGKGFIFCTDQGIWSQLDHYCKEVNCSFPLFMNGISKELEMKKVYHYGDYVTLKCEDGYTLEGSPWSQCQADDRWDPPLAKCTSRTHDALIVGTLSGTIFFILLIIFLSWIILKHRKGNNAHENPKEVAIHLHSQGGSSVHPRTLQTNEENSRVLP

The substances below were run against iC3 (C3 containing a broken thioester bond analogous in reactivity and function to C3b) (UniProt P01024) (assay: iC3-Sepharose, ELISA of eluate).

binding, binds:
CR1-4 (8, 9) (from UniProt P17927 492-1034) (receptor)
CR1-4 (8, 9) mutant 1ar, 5r, 8br (from UniProt P17927 492-1034) (receptor)
CR1-4 (8, 9) mutant 1br (from UniProt P17927 492-1034) (receptor)
CR1-4 (8, 9) mutant 2r (from UniProt P17927 492-1034) (receptor)
CR1-4 (8, 9) mutant 3r (from UniProt P17927 492-1034) (receptor)
CR1-4 (8, 9) mutant 6r (from UniProt P17927 492-1034) (receptor)
CR1-4 (8, 9) mutant 7r (from UniProt P17927 492-1034) (receptor)
CR1-4 (8, 9) mutant 8r (from UniProt P17927 492-1034) (receptor)
CR1-4 (8, 9) mutant 9r (from UniProt P17927 492-1034) (receptor)
CR1-4 (8, 9) mutant 10, 11r (from UniProt P17927 492-1034) (receptor)
CR1-4 (8, 9) mutant 10ar (from UniProt P17927 492-1034) (receptor)
CR1-4 (8, 9) mutant 10br (from UniProt P17927 492-1034) (receptor)
CR1-4 (8, 9) mutant 10cr (from UniProt P17927 492-1034) (receptor)
CR1-4 (8, 9) mutant 10dr (from UniProt P17927 492-1034) (receptor)
CR1-4 (8, 9) mutant 10r (from UniProt P17927 492-1034) (receptor)
CR1-4 (8, 9) mutant 11ar (from UniProt P17927 492-1034) (receptor)
CR1-4 (8, 9) mutant 11br (from UniProt P17927 492-1034) (receptor)
CR1-4 (8, 9) mutant 11cr (from UniProt P17927 492-1034) (receptor)
CR1-4 (8, 9) mutant 11dr (from UniProt P17927 492-1034) (receptor)
CR1-4 (8, 9) mutant 11er (from UniProt P17927 492-1034) (receptor)
CR1-4 (8, 9) mutant 11r (from UniProt P17927 492-1034) (receptor)
CR1-4 (8, 9) mutant 12r (from UniProt P17927 495-1034) (receptor)
CR1-4 (8, 9) mutant 13r (from UniProt P17927 45-1034) (receptor)
CR1-4 (8, 9) mutant 14r (from UniProt P17927 51-1034) (receptor)
CR1-4 (8, 9) mutant 15r (from UniProt P17927 492-1034) (receptor)
CR1-4 (8, 9) stop 7 (from UniProt P17927 492-940) (receptor)
CR1-4 Stop 7 (from UniProt P17927 42-940) (receptor)
CR1-4 mutant 1 (from UniProt P17927 42-1034) (receptor)
CR1-4 mutant 1a (from UniProt P17927 42-1034) (receptor)
CR1-4 mutant 1b (from UniProt P17927 42-1034) (receptor)
CR1-4 mutant 1b, 6b (from UniProt P17927 42-1034) (receptor)
CR1-4 mutant 2 (from UniProt P17927 42-1034) (receptor)
CR1-4 mutant 3 (from UniProt P17927 42-1034) (receptor)
CR1-4 mutant 4 (from UniProt P17927 42-1034) (receptor)
CR1-4 mutant 5 (from UniProt P17927 42-1034) (receptor)
CR1-4 mutant 6 (from UniProt P17927 42-1034) (receptor)
CR1-4 mutant 6b (from UniProt P17927 42-1034) (receptor)
CR1-4 mutant 7 (from UniProt P17927 42-1034) (receptor)
CR1-4 mutant 8 (from UniProt P17927 42-1034) (receptor)
CR1-4 mutant 8a (from UniProt P17927 42-1034) (receptor)
CR1-4 mutant 8b (from UniProt P17927 42-1034) (receptor)
CR1-4 mutant 9 (from UniProt P17927 42-1034) (receptor)
CR1-4 mutant 10 (from UniProt P17927 42-1034) (receptor)
CR1-4 mutant 10, 11 (from UniProt P17927 42-1034) (receptor)
CR1-4 mutant 11 (from UniProt P17927 42-1034) (receptor)
CR1-4 mutant 11a (from UniProt P17927 42-1034) (receptor)
CR1-4 mutant 11b (from UniProt P17927 42-1034) (receptor)
CR1-4 mutant 11c (from UniProt P17927 42-1034) (receptor)
CR1-4 mutant 11c, d (from UniProt P17927 42-1034) (receptor)
CR1-4 mutant 11d (from UniProt P17927 42-1034) (receptor)
CR1-4 mutant 11e (from UniProt P17927 42-1034) (receptor)
CR1-4 mutant 11ΔSCR1 (from UniProt P17927 102-1034) (receptor)
CR1-4 mutant 12 (from UniProt P17927 45-1034) (receptor)
CR1-4 mutant 13 (from UniProt P17927 42-1034) (receptor)
CR1-4 mutant 14 (from UniProt P17927 42-1034) (receptor)
CR1-4 mutant 27, 29: Y . . . N→ S . . . K (from UniProt P17927 42-1034) (receptor)
